PubChem BioAssay AID1259308 – NCATS | 2017
Screen: 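Knock-downs that increase output of a recombinant reporter protein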 (primary screen). Cells: human HEK293 embryonic kidney cells stably expressing firefly luciferase (HEK-CMV-Luc2-Hygro). Reagents: single siRNA against human genes, 0.8 pmol siRNA per well. Duration: 72 h. Measured: 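Reporter luminescence and viable-cell signal on separate replicate plates, given as percent of non-targeting control and median/MAD z-scores, plus per-cell luciferase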. Reading the numbers: total luciferase, z-score and total luciferase, % of control: higher = more reporter protein produced; luciferase per cell, z-score: higher = more reporter output per viable cell; viable cells, % of control: higher = more viable cells. Rule for the call: 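Active when the median/MAD z-score for overall luciferase is greater than 3; a gene was taken forward for validation with new siRNAs if at least two of its three siRNAs passed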. Meaning of the calls: active = raised luciferase; inactive = no rise.
The whole screen tested about 59,000 reagents; below is a random part of them. In the full data, about 1,510 (2.6%) were called active. 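Calls use total luciferase alone and ignore viability, so some active siRNAs may act by altering cell number.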 Unmarked entries are inactive. Reagents against one gene are numbered here.

target | siRNA no. | total luciferase, z-score | total luciferase, % of control | luciferase per cell, z-score | viable cells, % of control
MEIS1-AS3 | 1 | -0.91 | 63.8 | -0.759 | 87.1
MEIS1-AS3 | 2 | 0.13 | 84.5 | 0.978 | 73
MEIS1-AS3 | 3 | 0.318 | 88.2 | 1.23 | 71.2
RIOX1 | 1 | -0.339 | 75.1 | 0.365 | 76.3
RIOX1 | 2 | -0.0736 | 80.4 | -0.107 | 92.4
RIOX1 | 3 | -1.35 | 55 | -1.4 | 88.7
RPH3A | 1 | 0.691 | 95.6 | 0.453 | 94.8
RPH3A | 2 | -0.799 | 66 | -0.112 | 76
RPH3A | 3 | -0.00283 | 81.8 | 0.0103 | 91.2
FAM174C | 1 | -0.751 | 66.9 | -1.35 | 107
FAM174C | 2 | -1.98 | 42.4 | -2.57 | 93.2
FAM174C | 3 | -1.48 | 52.4 | -1.02 | 76.7
LOC390846 | 1 | 0.727 | 96.3 | 0.678 | 90.1
LOC390846 | 2 | 0.218 | 86.2 | -0.363 | 106
LOC390846 | 3 | -0.819 | 65.6 | -1.73 | 116
LINC00614 | 1 | 0.0707 | 83.3 | 0.209 | 88.1
LINC00614 | 2 | -2.15 | 39.1 | -2.38 | 81.6
LINC00614 | 3 | -0.481 | 72.3 | -0.689 | 96.9
KBTBD12 | 1 | -0.249 | 76.9 | -0.881 | 108
KBTBD12 | 2 | -0.0211 | 81.5 | -0.35 | 99.8
KBTBD12 | 3 | -1.12 | 59.6 | -0.628 | 78.6
SCNN1G | 1 | 0.77 | 97.2 | 0.68 | 90.8
SCNN1G | 2 | -1.42 | 53.7 | -1.15 | 81.3
SCNN1G | 3 | -1.56 | 50.9 | -2 | 96.4
CCDC134 | 1 | -0.133 | 79.2 | -0.135 | 91.8
CCDC134 | 2 | 0.279 | 87.4 | 0.833 | 78.5
CCDC134 | 3 | -1.56 | 50.8 | -2.26 | 103
DUX5 | 1 | 0.337 | 88.6 | -0.328 | 108
DUX5 | 2 | 0.196 | 85.8 | 0.634 | 81.1
DUX5 | 3 | 0.71 | 96 | 0.175 | 102
KCNN1 | 1 | -0.745 | 67.1 | -0.782 | 92.1
KCNN1 | 2 | 0.317 | 88.2 | 0.117 | 95.6
KCNN1 | 3 | -0.182 | 78.3 | -0.455 | 98.6
JUNB | 1 | -0.285 | 76.2 | -0.399 | 94.6
JUNB | 2 | -0.314 | 75.6 | -0.657 | 100
JUNB | 3 | 1.17 | 105 | 1.49 | 79.3
ARB2A | 1 | -1.01 | 61.8 | -1.08 | 91.7
ARB2A | 2 | 0.753 | 96.9 | 0.856 | 86.4
ARB2A | 3 | -0.109 | 79.7 | -0.433 | 99.9

2 entries from above, sorted by “total luciferase, z-score”, lowest first:
target | siRNA no. | total luciferase, z-score | total luciferase, % of control | luciferase per cell, z-score | viable cells, % of control
JUNB | 2 | -0.314 | 75.6 | -0.657 | 100
JUNB | 3 | 1.17 | 105 | 1.49 | 79.3
